Here are results for 2 molecules from US20240400722A1, “Chemically Inducible Heterodimerizing System and A Method For Generation Thereof” (Miltenyi Biotec B.V. & Co. KG, priority 2023, published 2024).

Changes are numbered by the printed parent chain.

A short description of the series: Full-length display of acVHH variants on yeast surface. On the set-up: species or system S. cerevisiae. Particulars: anti-c-myc staining; compared with acVHH-WT.

B1: acVHH-M1 (protein)
chain: QVQLVESGGGLVQAGGSLRLSCTASGRTGTIYSMAWFRQAPGKEREFLAPVALGLQSTYYMDSVKGRFTISRDKGKNTVYLQMDSLKPEDTAVYYCTATRAYSVGYDYWGQGTQVTVSS
modifications: left off: large carriers; small tags and cut ends
In the case of B1, the “full length display on yeast” value is recorded as “well-expressed”.

B2: acVHH-M2 (protein)
chain: B1 chain with P50Q, V51Q, A52R, L53W, G54L, L55F, Q56R, S57R
modifications: left off: large carriers; small tags and cut ends
B2: the “full length display on yeast” value was “well-expressed”.
